Results deposited as PubChem BioAssay AID1508597 (Cure First, 2020)
Shown is an unselected part of about 2,100 deposited reagents. 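Calls flag viability under 80% in either arm, not effects specific to rucaparib; the reference for percent is not stated.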 A reagent listed more than once was tested more than once; the source does not tell the runs apart. Not given: the 100% reference.

Screen: 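Knock-downs altering ovarian cancer cell survival with or without PARP inhibitor rucaparib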 (primary screen)
Cell system: human ovarian carcinoma lines grown from tumours: OCI-P5x (papillary serous) and OCI-C5x (clear cell)
Reagent: siRNA pool against human genes, 1.25 pmol siRNA per well
Duration: 72 h or 96 h, depending on the cell culture
Conditions: rucaparib 20 µM (about IC30) or vehicle, present until read-out
Detection: 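ATP luminescence measured at 72 or 96 h according to the culture, then normalised and expressed as percent viability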
Reading the numbers: viability, normalised: higher = more viable cells remaining
Active means: 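a well counts as a hit if its normalised viability is under 80 percent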
Calls: active = viability under 80%; inactive = viability 80% or more

viability, normalised (%)	outcome	target	rucaparib or vehicle	cell line	technical replicate
37.2	active	IGHMBP2	Rucaparib	OCI-C5x (clear cell)	1
38.8	active	IGHMBP2	Rucaparib	OCI-C5x (clear cell)	1
65.1	active	IGHMBP2	Rucaparib	OCI-C5x (clear cell)	2
33.1	active	IGHMBP2	Rucaparib	OCI-C5x (clear cell)	2
61.8	active	IGHMBP2	Rucaparib	OCI-C5x (clear cell)	3
34.1	active	IGHMBP2	Rucaparib	OCI-C5x (clear cell)	3
58.7	active	IGHMBP2	Rucaparib	OCI-P5x (serous)	1
42.6	active	IGHMBP2	Rucaparib	OCI-P5x (serous)	1
72.3	active	IGHMBP2	Rucaparib	OCI-P5x (serous)	2
64.1	active	IGHMBP2	Rucaparib	OCI-P5x (serous)	2
76.5	active	IGHMBP2	Rucaparib	OCI-P5x (serous)	3
58.4	active	IGHMBP2	Rucaparib	OCI-P5x (serous)	3
43.1	active	IGHMBP2	Vehicle	OCI-C5x (clear cell)	1
58.4	active	IGHMBP2	Vehicle	OCI-C5x (clear cell)	1
46.4	active	IGHMBP2	Vehicle	OCI-C5x (clear cell)	2
40.8	active	IGHMBP2	Vehicle	OCI-C5x (clear cell)	2
56.4	active	IGHMBP2	Vehicle	OCI-C5x (clear cell)	3
58.6	active	IGHMBP2	Vehicle	OCI-C5x (clear cell)	3
67.7	active	IGHMBP2	Vehicle	OCI-P5x (serous)	1
64.4	active	IGHMBP2	Vehicle	OCI-P5x (serous)	1
91.3	inactive	IGHMBP2	Vehicle	OCI-P5x (serous)	2
43	active	IGHMBP2	Vehicle	OCI-P5x (serous)	2
51	active	IGHMBP2	Vehicle	OCI-P5x (serous)	3
84.8	inactive	IGHMBP2	Vehicle	OCI-P5x (serous)	3

4 entries already listed, sorted by “viability, normalised (%)”, ascending:
viability, normalised (%)	outcome	target	rucaparib or vehicle	cell line	technical replicate
43	active	IGHMBP2	Vehicle	OCI-P5x (serous)	2
51	active	IGHMBP2	Vehicle	OCI-P5x (serous)	3
64.4	active	IGHMBP2	Vehicle	OCI-P5x (serous)	1
91.3	inactive	IGHMBP2	Vehicle	OCI-P5x (serous)	2

More results follow:
viability, normalised (%)	outcome	target	rucaparib or vehicle	cell line	technical replicate
41.6	active	F7	Rucaparib	OCI-C5x (clear cell)	1
22.4	active	F7	Rucaparib	OCI-C5x (clear cell)	2
24.9	active	F7	Rucaparib	OCI-C5x (clear cell)	3
42.3	active	F7	Rucaparib	OCI-P5x (serous)	1
65.8	active	F7	Rucaparib	OCI-P5x (serous)	2
68.9	active	F7	Rucaparib	OCI-P5x (serous)	3
20.9	active	F7	Vehicle	OCI-C5x (clear cell)	1
20.8	active	F7	Vehicle	OCI-C5x (clear cell)	2
29.8	active	F7	Vehicle	OCI-C5x (clear cell)	3
58.3	active	F7	Vehicle	OCI-P5x (serous)	1
59.9	active	F7	Vehicle	OCI-P5x (serous)	2
61.8	active	F7	Vehicle	OCI-P5x (serous)	3
63.3	active	TYRO3	Rucaparib	OCI-C5x (clear cell)	1
65.5	active	TYRO3	Rucaparib	OCI-C5x (clear cell)	2
62	active	TYRO3	Rucaparib	OCI-C5x (clear cell)	3
86.4	inactive	TYRO3	Rucaparib	OCI-P5x (serous)	1
87.4	inactive	TYRO3	Rucaparib	OCI-P5x (serous)	2
103	inactive	TYRO3	Rucaparib	OCI-P5x (serous)	3
51.4	active	TYRO3	Vehicle	OCI-C5x (clear cell)	1
50.5	active	TYRO3	Vehicle	OCI-C5x (clear cell)	2
51.9	active	TYRO3	Vehicle	OCI-C5x (clear cell)	3
84.7	inactive	TYRO3	Vehicle	OCI-P5x (serous)	1
63.6	active	TYRO3	Vehicle	OCI-P5x (serous)	2
74.7	active	TYRO3	Vehicle	OCI-P5x (serous)	3
